According to PubChem BioAssay AID504467 (National Center for Advancing Translational Sciences (NCATS), 2011):
Among all 330,000 compounds or so, about 7,700 (2.3%) were called active. The shares of active, inactive and inconclusive entries below differ from those in the screen. Calls follow the shape of the dose curve; as a rule, active = well fitted inhibition curve with a large enough effect; inconclusive = small, poorly fitted or top-dose-only effect, or effect the other way; inactive = flat fitted curve, though single readings scatter. Where the call is inconclusive, the potency comes from a doubtful curve fit.

assay: qHTS screen for small molecules that inhibit ELG1-dependent DNA repair in human embryonic kidney (HEK293T) cells expressing luciferase-tagged ELG1; conditions: HEK293T ELG1-luciferase reporter, luminescence, 16 h, DNA damage induced by 5-fluorouridine; series mostly up to 46.1 µM; also: nearly all actives have a fitted effect of over 55% in size
Method in brief: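 5-Fluorouridine DNA damage + compound/DMSO, 2,000 cells/well, 16 h, 37 °C/5% CO2. ONE-Glo, 30 min RT, luminescence. Readout = decrease in reporter signal.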
Potency is read from the fitted curve at half-maximal effect.

SMILES	Potency
COc1ccc(N2CCN(C(CNC(=O)OCc3ccccc3)c3ccco3)CC2)cc1 (centres undefined)	inactive
COc1cc2nc(Cl)nc(N3CCN(C)CC3)c2cc1OC	inactive
Cc1[nH]c(N=Nc2ccccc2)nc1N=Nc1ccccc1	inconclusive: 23.1 µM [inhibitor, single point]
CCCc1ccc(-c2csc(NC(=O)C3=COCCO3)n2)cc1	inconclusive: 10.3 µM [activator, partial curve]
COc1cccc(NC(=O)CCc2ccccc2)c1	inconclusive: 20.6 µM [activator, single point]
O=C(Nc1ccc2oc(=O)ccc2c1)c1ccco1	inconclusive: 18.4 µM [activator, partial curve]
O=C(CN(c1ccccc1)S(=O)(=O)c1ccccc1)NCCSc1ccccn1	inactive
COc1ccc(C)cc1NC(=O)CN(Cc1nnc(-c2ccc(Cl)cc2)o1)C1CCCC1	inconclusive: 16.4 µM [inhibitor, partial curve, poor fit]
COc1cccc(C(=O)NC2CC3CCCC(C2)N3S(=O)(=O)c2ccccc2)c1 (centres undefined)	inconclusive: 16.4 µM [inhibitor, partial curve]
Cc1onc(-c2ccccc2)c1C(=O)NNC(=S)NC(=O)c1ccc2c(c1)OCO2	inconclusive: 23.1 µM [inhibitor, partial curve]
Cc1nn(-c2ccccn2)c2c1C(=O)CC(C)(C)C2Br (centres undefined)	inactive
CCn1c(CN(C)c2ccccc2)nc2ccccc21	inactive
CC(C)(C)c1cc(Cl)ccc1OCCn1ccnc1	inactive
Oc1cccc(/C=N/Nc2cc(N3CCOCC3)nc(N3CCOCC3)n2)c1	inconclusive: 20.6 µM [inhibitor, partial curve]
CCOC(=O)/C=c1\s/c(=C\c2c(OCC)ccc3ccccc23)c(=O)n1CC(=O)NCC1CCCO1 (centres undefined)	inconclusive: 25.9 µM [inhibitor, partial curve]
COc1ccc(/C=C/c2c([N+](=O)[O-])c(=O)n(C)c(=O)n2C)cc1	inconclusive: 18.3 µM [inhibitor, single point]
O=C(NCc1ccco1)c1cc2ccccc2c(=O)o1	inconclusive: 23.1 µM [activator, partial curve]
COc1ccc(NC(=S)Nc2cc(C)[nH]n2)cc1Cl	inconclusive: 16.4 µM [activator, partial curve]
COc1ccc(CCC(=O)OCC(=O)Nc2ccc(OC)c(OC)c2)cc1OC	inactive
CCN(C[C@H]1N[C@@](C)(C(=O)OC)[C@H]2C(=O)N(Cc3ccccc3)C(=O)[C@@H]12)C(=O)NC(C)C	inconclusive: 16.4 µM [activator, partial curve, poor fit]
CCOC(=O)C1CCN(c2cc3c(cc2NC(=O)c2ccccc2OCC)n(C)c(=O)n3C)CC1	inconclusive: 13 µM [inhibitor, partial curve]
CCn1c(SCC(=O)c2cc(C)n(-c3ccc(C(=O)OC)cc3)c2C)nnc1-c1cccnc1	inconclusive: 29.1 µM [inhibitor, single point]

SMILES	Potency
Cc1noc(C)c1COC(=O)c1cnc(Cl)c(Cl)c1	inconclusive: 20.6 µM [activator, partial curve]
CCCCCCSC1=C(C#N)C(=O)NC2(CCCCC2)S1	inconclusive: 18.4 µM [activator, single point]
CC(C)(C)Nc1nc(OCC#N)nc(N2CCCCC2)n1	inactive
COc1ccc(Nc2nc(NC(C)(C)C)nc(N3CCOCC3)n2)c(OC)c1	inconclusive: 23.1 µM [inhibitor, single point]
c1cncc(-c2noc(-c3ccco3)n2)c1	inconclusive: 9.2 µM [activator, partial curve, poor fit]
CN(C(=O)CSc1nc2ccc([N+](=O)[O-])cc2s1)C1CCS(=O)(=O)C1 (centres undefined)	inconclusive: 8.2 µM [inhibitor, partial curve, poor fit]
COC(=O)c1[nH]c2cc(C)ccc2c1NC(=O)CN1CCN(C(=O)c2ccco2)CC1	inconclusive: 10.3 µM [inhibitor, partial curve]
COC(=O)C1=C(C)N(C)C(=O)NC1c1cccc2ccccc12 (centres undefined)	inactive
COc1ccc(C(=O)NNC(=O)CSc2nc3c(c(=O)n(C)c(=O)n3C)n2C)cc1	inconclusive: 11.6 µM [activator, partial curve]
C/C(=C\c1ccccc1)CN(C)CCN(C)C	inactive
Cc1cc(C(=O)COC(=O)C(C)NC(N)=O)c(C)n1Cc1ccco1 (centres undefined)	inconclusive: 18.3 µM [activator, single point]
CCc1ccc2oc(C(=O)N3CCN(c4ccccc4OC)CC3)cc(=O)c2c1	inconclusive: 18.3 µM [inhibitor, partial curve]
CCC(C(=O)NCc1ccccn1)n1c2ccccc2c2nc(=O)cc(C)n21 (centres undefined)	inactive
CC(C)C[C@H](NC(=O)c1nc[nH]c1C(=O)N[C@@H](CCCCNC(=O)OC(C)(C)C)C(=O)OC(C)(C)C)C(=O)OCc1ccccc1	inconclusive: 1.3 µM [activator, partial curve, poor fit]
N#Cc1ccc(OCC(=O)N2CCN(S(=O)(=O)c3ccc(Cl)s3)CC2)cc1	inconclusive: 14.6 µM [inhibitor, partial curve, poor fit]
CCN(C(=O)CSc1nc2scc(-c3ccccc3)c2c(=O)n1C)C1CCS(=O)(=O)C1 (centres undefined)	inconclusive: 16.4 µM [activator, partial curve]
COc1ccc(C(=O)/C=C/N(C)C)cc1	inconclusive: 20.6 µM [activator, partial curve]
Cc1ccc(CCN2CC(C(=O)NCCCN3CCCCC3)CC2=O)cc1 (centres undefined)	inactive
CN1CCN(c2ccc(NC(=O)CSc3ccccc3)cc2F)CC1	inconclusive: 4.11 µM [activator, partial curve]
COc1ccc(C(C)=O)cc1COc1ccc(F)cc1	inactive
O=C1C=C(O)c2cccc3cccc1c23	inactive
Cc1nc2ccccn2c1-c1csc(Nc2ccc(C(=O)O)cc2)n1	inconclusive: 13 µM [inhibitor, partial curve, poor fit]

Of the compounds above, 9 contain a halogen.
SMILES	Potency
COc1cc2nc(Cl)nc(N3CCN(C)CC3)c2cc1OC	inactive
COc1ccc(C)cc1NC(=O)CN(Cc1nnc(-c2ccc(Cl)cc2)o1)C1CCCC1	inconclusive: 16.4 µM [inhibitor, partial curve, poor fit]
Cc1nn(-c2ccccn2)c2c1C(=O)CC(C)(C)C2Br (centres undefined)	inactive
CC(C)(C)c1cc(Cl)ccc1OCCn1ccnc1	inactive
COc1ccc(NC(=S)Nc2cc(C)[nH]n2)cc1Cl	inconclusive: 16.4 µM [activator, partial curve]
Cc1noc(C)c1COC(=O)c1cnc(Cl)c(Cl)c1	inconclusive: 20.6 µM [activator, partial curve]
N#Cc1ccc(OCC(=O)N2CCN(S(=O)(=O)c3ccc(Cl)s3)CC2)cc1	inconclusive: 14.6 µM [inhibitor, partial curve, poor fit]
CN1CCN(c2ccc(NC(=O)CSc3ccccc3)cc2F)CC1	inconclusive: 4.11 µM [activator, partial curve]
COc1ccc(C(C)=O)cc1COc1ccc(F)cc1	inactive
